# Earlier results as cited in patent publication US6974798B2, “Treatment of balance impairments” (Genentech, Inc., priority 1995, dated 2005).
# Some entries share one result that the patent states for a list of compounds.
# Tested on: spiral ganglion neurons
# Details: cited from earlier work
molecule,measurement,value
"NT-4/5: human recombinant neurotrophin-4/5 (Genentech, Inc.), ligand of trkB (protein) GVSETAPASRRGELAVCDAVSGWVTDRRTAVDLRGREVEVLGEVPAAGGSPLRQYFFETRCKADNAEEGGPGAGGGGCRGVDRRHWVSECKAKQSYVRALTAHAQGRVGWRWIRIDTACVCTLLSRTGRA",promotion of survival of spiral ganglion neurons,up to 3 fold
"BDNF: human recombinant brain-derived neurotrophic factor, ligand of trkB (protein) HSDPARRGELSVCDSISEWVTAADKKTAVDMSGGTVTVLEKVPVSKGQLKQYFYETKCNPMGYTKEGCRGIDKRHWNSQCRTTQSYVRALTMDSKKRIGWRFIRIDTSCVTLTIKRGR",promotion of survival of spiral ganglion neurons,up to 3 fold
